Test results as given in patent publication US20140030515A1, “RE-PEELABLE WATER DISPERSION TYPE ACRYL-BASED PRESSURE-SENSITIVE ADHESIVE COMPOSITION, PRESSURE-SENSITIVE ADHESIVE SHEET, AND OPTICAL MEMBER” (NITTO DENKO CORPORATION, priority 2012, published 2014).
Some results were stated once for a whole list of compounds, not compound by compound.

Assay: Measurement method for solubility in water
Format: physicochemical
Details: at 25° C.

| Compound | Solubility in water |
| --- | --- |
| C1CC(CN(CC2CO2)CC2CO2)CC(CN(CC2CO2)CC2CO2)C1 (centres unmarked) [TETRAD-C, 1,3-bis(N,N-diglycidylaminomethyl)cyclohexane] | ≤ 2 parts by weight in 100 parts b |
| c1cc(CN(CC2CO2)CC2CO2)cc(CN(CC2CO2)CC2CO2)c1 (centres unmarked) [TETRAD-X, 1,3-bis(N,N-diglycidylaminomethyl)benzene] | ≤ 2 parts by weight in 100 parts b |
